According to patent publication US6440400B1, “Trimethylcylohexane derivatives and melanin-formation inhibitors and perfumeholding agents with the use of the same” (Takasago International Corporation, priority 1998, dated 2002):
Structures can show the parent of a compound that is named as a salt.

Tests used:
[1] = Organoleptic evaluation of fragrance using scent papers; settings: 7 trained panelists
[2] = Expression test of neat fragrance; settings: 1:1 by weight with retainer, closed 30 minutes, vs fixative-free sample
[3] = Fixative test of neat fragrance; settings: 1:1 by weight with retainer, open about 8 hours at room temperature, vs fixative-free sample

Row | Compound | Quality of fragrances [1] | Fragrance expression test rating (total of scores of 10 panelists) ([2]; fragrance methylnonylketone) | Fragrance expression test rating (total of scores of 10 panelists) ([2]; fragrance n-decylaldehyde) | Fragrance fixative test rating (total of scores of 10 panelists) ([3]; fragrance ethyl octanoate) | Fragrance fixative test rating (total of scores of 10 panelists) ([3]; fragrance methylnonylketone) | Fragrance fixative test rating (total of scores of 10 panelists) ([3]; fragrance n-decylaldehyde)
1 | CCCCCCCCCC(O)CCC1C(C)CCCC1(C)C (stereo not drawn) [1^4′o, 1-(2′,2′,6′-Trimethylcyclohexan-1′-yl)-dodecan-3-ol] | Odorless |  |  |  |  | 
2 | CCCCCCCC(O)CCC1C(C)CCCC1(C)C (stereo not drawn) [Compound 1^4′m, 1-(2′,2′,6′-Trimethylcyclohexan-1′-yl)-decan-3-ol] | Odorless |  |  |  |  | 
3 | CC(=O)CCC1=C(C)CCCC1(C)C [Dihydro-β-ionone, dihydro-β-ionone, reference compound] | Amber-nuanced woody floral scent |  |  |  |  | 
4 | CC(C)CCCC(O)C=CC1C(C)CCCC1(C)C (stereo not drawn) [Compound 1″k, 1-(2′,2′,6′-Trimethylcyclohexan-1′-yl)-7-methyloctan-1-en-3-ol] | Odorless |  |  |  |  | 
5 | CCCCCC(O)C=CC1C(C)CCCC1(C)C (stereo not drawn) [Compound 1″i, 1-(2′,2′,6′-trimethylcyclohexan-1′-yl)octan-1-en-3-ol] | Odorless | 13 | 12 | 16 | 20 | 15
6 | CCCCCC(O)CCC1C(C)CCCC1(C)C (stereo not drawn) [Compound 1^4′i, 1-(2′,2′,6′-Trimethylcyclohexan-1′-yl)-octan-3-ol] | Very weak, siight amber scent |  |  |  |  | 
7 | CC(=O)/C=C/C1=C(C)CCCC1(C)C [β-Ionone, β-ionone, reference compound] | Sweet and potently woody floral |  |  |  |  | 
8 | O=C(OCc1ccccc1)c1ccccc1 [Benzyl benzoate, benzyl benzoate] |  | 7 | 8 | 13 | 16 | 7
9 | CCCCCCC(O)CCC1C(C)CCCC1(C)C (stereo not drawn) [1^4′j] | Almost odorless |  |  |  |  | 
10 | CC(O)CCC1C(C)CCCC1(C)C (stereo not drawn) [Tetrahydroionol, tetrahydroionol, reference compound] | Dry and woody scent |  |  |  |  | 
11 | CCOC(=O)CC(O)(CC(=O)OCC)C(=O)OCC [Triethyl citrate, triethyl citrate] |  | 8 | 8 | 11 | 13 | 8
